No constants are given. Whether binding was seen depends on the method and setting. In cells and extracts the contact can be indirect. Binding can be weak; no strength is given. For some assays here: Sequences can lack the tags named with a protein.
T1: GFP-tagged NKRF (human) (UniProt O15226)
T1 sequence: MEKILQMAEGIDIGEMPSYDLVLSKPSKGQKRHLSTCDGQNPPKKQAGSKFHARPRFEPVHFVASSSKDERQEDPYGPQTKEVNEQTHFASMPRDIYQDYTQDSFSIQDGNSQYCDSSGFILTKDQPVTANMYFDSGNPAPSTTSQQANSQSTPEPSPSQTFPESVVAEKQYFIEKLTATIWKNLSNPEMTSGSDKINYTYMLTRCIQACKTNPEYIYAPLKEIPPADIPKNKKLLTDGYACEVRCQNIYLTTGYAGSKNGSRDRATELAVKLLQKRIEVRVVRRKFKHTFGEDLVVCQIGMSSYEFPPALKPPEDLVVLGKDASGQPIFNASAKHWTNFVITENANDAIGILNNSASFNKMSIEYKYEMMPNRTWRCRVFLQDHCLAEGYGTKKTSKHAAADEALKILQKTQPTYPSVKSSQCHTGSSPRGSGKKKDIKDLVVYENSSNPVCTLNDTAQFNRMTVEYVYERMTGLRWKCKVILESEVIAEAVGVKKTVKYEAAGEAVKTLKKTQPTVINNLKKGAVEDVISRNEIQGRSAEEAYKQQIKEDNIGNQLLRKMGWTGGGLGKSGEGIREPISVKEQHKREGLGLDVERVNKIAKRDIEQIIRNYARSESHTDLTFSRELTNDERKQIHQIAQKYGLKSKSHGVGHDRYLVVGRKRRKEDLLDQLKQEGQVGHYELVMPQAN

B1: NF-κB-repressing factor (NKRF), endogenous in HEK293T (protein, UniProt O15226 1-690)
chain: T1 sequence
B2: NF-κB-repressing factor (NKRF), endogenous in 786-O (protein, UniProt O15226 1-690)
chain: T1 sequence

Experiments:
[1] = target: T1, GFP-tagged NKRF (human); experiment: co-IP; HEK293T cells co-transfected with GFP-NKRF (or NKRF ∆(204-308)) and Flag-tagged A1CF or its truncated or deleted forms; immunoprecipitation with anti-GFP antibodies (stated for Figure 2C), Western blot
[2] = target: GFP-fused A1CF (Apobec-1 complementation factor) (human); experiment: co-IP; extracts of HEK293T cells expressing GFP-tagged A1CF or the GFP-tag alone; anti-GFP antibody on Protein A agarose beads; Western blot of eluates
[3] = target: GFP-tagged A1CF in 786-O stable cell line (human); experiment: co-IP; extract of A1CF-overexpressed 786-O stable cells, immunoprecipitation in the presence of DNase or RNase (50 μg/mL, during the incubation with beads); blots for NKRF, A1CF and β-Actin

| Molecule | binding [1] | also measured |
| --- | --- | --- |
| Flag-A1CF ∆RRM3 (human) | binds | – |
| Flag-tagged A1CF (full length) (human) | binds | – |
| Flag-auxiliary domain of A1CF (294-586aa) (human) (domain or fragment) | no binding | – |
| Flag-A1CF ∆RRM2 (human) | binds | – |
| Flag-A1CF ∆RRM1 (human) | binds weakly | – |
| Flag-RRM domain of A1CF (1-293aa) (human) (domain or fragment) | binds | – |
| B1 | – | binding [2]: binds |
| B2 | – | binding [3]: binds |
